For the assay, the target named is exocytic SNARE complexes (human) (UniProt Q12846+O00161+P63027). The assay is described as follows: co-immunoprecipitation from HEK-293 lysate with anti-Munc18c antibodies, Western blot.

Chains of the proteins cited; added tags and fusions are not shown. Lines headed by an entry give the natural chain unless they say otherwise; changes in a name come on top.
UniProt Q12846: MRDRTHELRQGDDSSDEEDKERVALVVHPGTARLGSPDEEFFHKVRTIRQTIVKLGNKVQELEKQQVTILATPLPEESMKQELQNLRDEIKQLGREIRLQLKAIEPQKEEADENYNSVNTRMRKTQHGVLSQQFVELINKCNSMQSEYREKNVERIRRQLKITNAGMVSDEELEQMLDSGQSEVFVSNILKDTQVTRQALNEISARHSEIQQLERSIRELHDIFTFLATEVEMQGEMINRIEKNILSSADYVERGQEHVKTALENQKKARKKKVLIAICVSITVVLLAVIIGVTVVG
UniProt O00161: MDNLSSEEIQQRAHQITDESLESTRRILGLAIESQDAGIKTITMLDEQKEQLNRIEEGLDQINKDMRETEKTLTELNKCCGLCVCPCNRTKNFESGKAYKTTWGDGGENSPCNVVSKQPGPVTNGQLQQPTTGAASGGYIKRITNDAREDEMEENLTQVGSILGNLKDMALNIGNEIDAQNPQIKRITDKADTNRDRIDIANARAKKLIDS
UniProt P63027: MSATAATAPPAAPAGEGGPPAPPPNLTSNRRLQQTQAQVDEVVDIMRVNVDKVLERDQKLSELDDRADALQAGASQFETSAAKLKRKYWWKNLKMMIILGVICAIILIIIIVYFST

No constants are given. Whether binding was seen depends on the method and setting. Binding seen in cells or lysates may run through a third protein. Some results given as binding are weak or reduced against the parent protein; the word gives no strength.

B1: Munc18c (protein)
chain: MAPPVAERGLKSVVWQKIKATVFDDCKKEGEWKIMLLDEFTTKLLASCCKMTDLLEEGITVVENIYKNREPVRQMKALYFITPTSKSVDCFLHDFASKSENKYKAAYIYFTDFCPDNLFNKIKASCSKSIRRCKEINISFIPHESQVYTLDVPDAFYYCYSPDPGNAKGKDAIMETMADQIVTVCATLDENPGVRYKSKPLDNASKLAQLVEKKLEDYYKIDEKSLIKGKTHSQLLIIDRGFDPVSTVLHELTFQAMAYDLLPIENDTYKYKTDGKEKEAILEEEDDLWVRIRHRHIAVVLEEIPKLMKEISSTKKATEGKTSLSALTQLMKKMPHFRKQITKQVVHLNLAEDCMNKFKLNIEKLCKTEQDLALGTDAEGQKVKDSMRVLLPVLLNKNHDNCDKIRAILLYIFSINGTTEENLDRLIQNVKIENESDMIRNWSYLGVPIVPQSQQGKPLRKDRSAEETFQLSRWTPFIKDIMEDAIDNRLDSKEWPYCSQCPAVWNGSGAVSARQKPRANYLEDRKNGSKLIVFVIGGITYSEVRCAYEVSQAHKSCEVIIGSTHVLTPKKLLDDIKMLNKPKDKVSLIKDE
As for B1, the binding entry is “binds”.
